Source: patent US9920040B2, “GPR40 agonists for the treatment of type II diabetes” (Janssen Pharmaceutica NV, priority 2015, dated 2018)

By UniProt entry, the sequences of proteins in these tests, tags left out.
UniProt O14842, whole entry: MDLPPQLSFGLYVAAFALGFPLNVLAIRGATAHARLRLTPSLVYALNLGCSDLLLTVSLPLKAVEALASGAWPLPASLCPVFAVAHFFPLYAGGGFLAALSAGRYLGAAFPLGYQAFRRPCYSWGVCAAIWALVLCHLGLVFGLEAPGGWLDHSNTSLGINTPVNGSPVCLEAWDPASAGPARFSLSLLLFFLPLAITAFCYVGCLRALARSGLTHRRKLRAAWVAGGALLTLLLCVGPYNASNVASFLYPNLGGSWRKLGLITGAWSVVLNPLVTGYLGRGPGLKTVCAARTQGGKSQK

Molecular target: human GPR40 (Homo sapiens, UniProt O14842)
Assay: GPR40 calcium flux assay, human GPR40
Details: read-out: hGPR40 Ca^2+ Assay EC50; transfected HEK293 cells stably expressing human GPR40; multiple values = repeated testing
Procedure: Compounds were tested in a calcium flux assay using transfected HEK293 cells stably expressing either human GPR40 or rat GPR40. Human GPR40 expressing cells were cultured in DMEM-High Glucose media supplemented with 10% fetal bovine serum, 1×L-Glutamine, 1×Penicillin/Streptomycin and 500 μg/mL G418. Rat GPR40 expressing cells were cultured in DMEM-High Glucose media supplemented with 10% fetal bovine serum and 1 μg/mL puromycin. Cells were plated into poly-D-lysine coated 384-well plates and cultured overnight in a 37° C. humidified tissue culture incubator under 5% CO2/[…] atmosphere. On the day of the experiment, the culture media was replaced with assay buffer (HBSS, 20 mM HEPES, 0.1% BSA) and the cells incubated at 37° C. for 1 h. Calcium-sensitive fluorescent dye (Fluo 8 No-Wash Calcium Dye, ABD Bioquest) was then added and the cells incubated for another 30 min at 37° C. followed by 15 min at room temperature while protected from the light. The cell plate and a plate of diluted compounds of Formula (I) were loaded into a fluorescent plate reader that added compounds onto the cells while measuring the fluorescence intensity of each well. The plate reader recorded fluorescence intensity at 1 second intervals for 8 min and provided the data for analysis in an Excel format. EC50 values were calculated using Prism (GraphPad) software.

pEC50: 6.94 and 7.04
Structure (SMILES): CC1(C)CCC=C1c1c(COc2cccc([C@@H](CC(=O)O)C3CC3)c2)csc1-c1cc(C#N)ccc1F

pEC50: −log10 of the molar value. Values joined by “and” are separate entries in the source; they are usually repeats but may differ in a detail not shown here. Equal entries are not always repeated. The structures given here were assigned with low confidence; some may be wrong.
